Experimental data: PubChem BioAssay AID602196 (INSERM, 2012)
Shown is an unselected part of about 23,000 deposited reagents. Of all reagents, 455 (2%) got an active call. 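Active includes both protection and sensitisation; some change values fall well beyond the stated -50 to +50 range.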 The numbers tell different reagents against one gene apart. Further read-outs or replicates are left out here. No sequences are given here. Not given: the amount of reagent.

- Screen: 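Knock-downs that protect lung cancer cells from cisplatin or sensitise them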
- Cell system: human A549 lung cancer cells
- Reagent: siRNA pair against human genes
- Time to read-out: 48 h transfection before cisplatin; time from cisplatin to read-out not stated
- Treatment: cisplatin at a dose killing half of control-siRNA cells; exact dose and duration not given
- Read-out: 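Shift in cisplatin death relative to control siRNA, from -50 (all cells die) to +50 (no cells die); siRNAs harmful on their own scored 0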
- Reading the numbers: two-siRNA summed score (-2 to +2): higher = both siRNAs protect from cisplatin killing; -2 means both sensitise
- Active means: 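siRNAs harmful alone (LDH or WST-1) get 0; others get +1 for less and -1 for more cisplatin killing; genes are active when the two siRNAs give the same sign, summing to ±2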
- Meaning of the calls: active = both siRNAs shift cisplatin killing the same way; inactive = no consistent shift, or siRNA harmful alone

TAF8 — two-siRNA summed score (-2 to +2) = 1; call = inactive
MTMR4 — two-siRNA summed score (-2 to +2) = 2; call = active
LOC390846 — two-siRNA summed score (-2 to +2) = -1; call = inactive
IL20RB — two-siRNA summed score (-2 to +2) = 0; call = inactive
LOC440110 — two-siRNA summed score (-2 to +2) = 0; call = inactive
TSEN15 — two-siRNA summed score (-2 to +2) = 0; call = inactive
EIF3I — two-siRNA summed score (-2 to +2) = 0; call = inactive
GPSM2 — two-siRNA summed score (-2 to +2) = 0; call = inactive
ARMCX4 #1 — two-siRNA summed score (-2 to +2) = 0; call = inactive
ARMCX4 #2 — two-siRNA summed score (-2 to +2) = 1; call = inactive
MTIF3 — two-siRNA summed score (-2 to +2) = 0; call = inactive
SH3BP5 #1 — two-siRNA summed score (-2 to +2) = 0; call = inactive
SH3BP5 #2 — two-siRNA summed score (-2 to +2) = 0; call = inactive
LOC169834 — two-siRNA summed score (-2 to +2) = 0; call = inactive
DAZL — two-siRNA summed score (-2 to +2) = 0; call = inactive
FLJ45337 — two-siRNA summed score (-2 to +2) = 0; call = inactive
APOBEC3F — two-siRNA summed score (-2 to +2) = 0; call = inactive
CNOT4 — two-siRNA summed score (-2 to +2) = 0; call = inactive

The list goes on, starting with the last 2 of the part before.
APOBEC3F — two-siRNA summed score (-2 to +2) = 0; call = inactive
CNOT4 — two-siRNA summed score (-2 to +2) = 0; call = inactive
TACC1 — two-siRNA summed score (-2 to +2) = 0; call = inactive
LOC442144 — two-siRNA summed score (-2 to +2) = 1; call = inactive
DAZAP1 — two-siRNA summed score (-2 to +2) = 0; call = inactive
LOC441428 — two-siRNA summed score (-2 to +2) = 1; call = inactive
LOC389108 — two-siRNA summed score (-2 to +2) = 0; call = inactive
KRT85 — two-siRNA summed score (-2 to +2) = 1; call = inactive
FBXL21P — two-siRNA summed score (-2 to +2) = 0; call = inactive
GLT8D1 — two-siRNA summed score (-2 to +2) = 0; call = inactive
EYA3 — two-siRNA summed score (-2 to +2) = 0; call = inactive
MED20 — two-siRNA summed score (-2 to +2) = 0; call = inactive
LOC442426 — two-siRNA summed score (-2 to +2) = 0; call = inactive
FKBP2 — two-siRNA summed score (-2 to +2) = -1; call = inactive
LOC340542 — two-siRNA summed score (-2 to +2) = 0; call = inactive
EID1 — two-siRNA summed score (-2 to +2) = 0; call = inactive
SIGLEC12 — two-siRNA summed score (-2 to +2) = 1; call = inactive
OR51V1 — two-siRNA summed score (-2 to +2) = 0; call = inactive
RFT1 — two-siRNA summed score (-2 to +2) = 0; call = inactive
ADAD2 — two-siRNA summed score (-2 to +2) = 0; call = inactive
LOC389081 — two-siRNA summed score (-2 to +2) = -1; call = inactive
LOC441189 — two-siRNA summed score (-2 to +2) = 0; call = inactive
LOC284064 — two-siRNA summed score (-2 to +2) = 0; call = inactive
RDH11 — two-siRNA summed score (-2 to +2) = 0; call = inactive
